For some of these results: A negative result means that nothing was seen under these conditions. Tags and fusion partners may be left off the protein sequences shown.
How the values were obtained:
[1] = system: T1, XreR2 (Photorhabdus luminescens DJC); test: MST; settings: recombinant protein, residues 1-69, protein details: His6-SUMO, cleaved off with Senp2, probe letters rebuilt from the primers and the genome
T1 sequence (looked up): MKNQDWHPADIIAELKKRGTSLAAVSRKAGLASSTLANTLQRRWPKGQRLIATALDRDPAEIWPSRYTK

[2] = system: T2, XreR1 (Photorhabdus luminescens DJC); test: MST; settings: recombinant protein, residues 1-78, protein details: His6-SUMO, cleaved off with Senp2, probe letters rebuilt from the primers and the genome
T2 sequence (looked up): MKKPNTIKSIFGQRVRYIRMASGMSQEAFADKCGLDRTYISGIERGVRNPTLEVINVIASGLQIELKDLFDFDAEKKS

[3] = system: T1, XreR2 (Photorhabdus luminescens DJC); test: SPR; settings: not quantifiable, 100-2500 nM, no saturation, lower affinity than XreR1; SPR (Biacore 3000, SA chip), proteins in dialysis buffer: 50 mM Tris/HCl pH 7.5, 10% glycerol, 500 mM NaCl, 2 mM beta-mercaptoethanol; 25 C; 30 ul/min; 1:1 binding fit; recombinant protein; residues 1-69; protein details: His6-SUMO, cleaved off with Senp2; label: 5'-biotin (SPR); probe letters rebuilt from the primers and the genome

| Sequence | binding result ([1]; label: 5'-Cy5) | binding result ([2]; label: 5'-Cy5) | binding result ([1]; label: 5'-biotin (SPR)) | binding result ([2]; label: 5'-biotin (SPR)) | binding result [3] |
| --- | --- | --- | --- | --- | --- |
| ATTAGCCATCCATTTAATGGGGTAACTTCAACTTAAATTATTGTTTAATCATCTTGCAAACTGGTTGTACCAATATTTGCTTCTTGTATTTTTATGTTACAACGATAAAAATAAAAAGAATATCCAGAAAATAAGATTTTTTATTATAATAATCTCAATCTATAAGTTTCGTTAGAAATAATAACGCCCTGAATTTTATGCTCAAAACTATTAATGTAACTTCGCGCTCATAAATATAATTCCTGTTCCATTTGTAATGTCTGTAAAATAGCAAAGGAAACTTTTTATATCAACAAAATTTATTAATAAAAATTTAAATTAAAGAAATCAAGCTCTTCTTTATATACAAA (double strand) [PluxC] | no binding | no binding |  |  |  |
| CGTGTTAGGTTTTTTCATTCGATAAGTATCGAACGATGTTACTTATCAAACCACGGACTATAAGTCACGTTTTCCTGTAACTCGTGTTACTAATATGACTTACCGCAAAAATACGATGAATGATATTTTAATAACAAAGTGATCTTGTCATTGGGAGGATTAAAACGCTCAATTATCATGGCACAAAAGGCATATATAGCTTCTCTTATCATTCGCTTCCTTAATGGCATAGACGCTACCGCCTTTGTTTGGGATTACGCCAAACAAATATAACGTTACAAACCAAAAATATGAAAAATCTTCGAACACATTAATTAAATTAATTTATTTTATCAAGAAATTTGCCAATCTGGTCGCAAGTATTATTTATTAAG (double strand) [PxreR1] |  |  | binds | binds | binds |
| CTGAACTATTCCTATCGTTATTTATACCCGTCATCTTTCAAGTTGCCTCTTTGTTGGCCGCACTCGGTCACATCGTTATCTATGCTACCGGGGATTCACTCCCTTGCCGTCATGATACATCTTGAAATCTATAGGGTATATATTATTGCTATTCACGGAAAAACACGATTACCCCTAACAAGCATTATTCATAAATTAGTGACAGTTTTTGTCAGCATTTACGAAAAATATTAACCTTTTCACGTAAAGAACAATAATATATCGGTGTTACATTTACAATAACTTATAATACCAAAACACTTTATCATGTCACTATACAAATTCATACTTTCTGACTAATCAGAAAATAAAATAAAGGGTCAGCAATAATTTCTGCATTA (double strand) [PantA] | no binding | no binding |  |  |  |
